Results on one molecule are retold here after article PMC4193777 (PLoS ONE, 2014).

Chains of the proteins cited; added tags and fusions are not shown.
UniProt P25090: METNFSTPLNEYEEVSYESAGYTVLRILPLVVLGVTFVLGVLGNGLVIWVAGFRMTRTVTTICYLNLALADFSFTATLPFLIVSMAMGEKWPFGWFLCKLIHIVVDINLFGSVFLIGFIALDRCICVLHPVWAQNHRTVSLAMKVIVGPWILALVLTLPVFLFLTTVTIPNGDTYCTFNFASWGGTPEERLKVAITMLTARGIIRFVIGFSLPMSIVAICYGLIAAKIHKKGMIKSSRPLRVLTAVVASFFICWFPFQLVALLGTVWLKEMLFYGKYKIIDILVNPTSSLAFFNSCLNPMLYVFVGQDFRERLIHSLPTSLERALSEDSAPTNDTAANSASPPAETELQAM

No constants are given. Whether binding was seen depends on the method and setting. Some entries that bind do so weakly or less than the wild type.

The experiment concerns the target formyl peptide receptor 2 (FPR2) (human (endogenous in neutrophils)) (UniProt P25090). Description: flow cytometry on cells; Cy5-WKYMVM (1 nM) incubated with human neutrophils on ice for 1 or 2 hours, without or with an excess of non-labeled WKYMVM (100 nM) or F2Pal10 (1 µM); only the binder purified. For orientation: Flow cytometry measures light scatter and fluorescence of single cells or particles in a stream.

For the molecule KIHKKGMIKS (N-terminal palmitoylation) [F2Pal10 pepducin], the binding result is “binds”.
